Patent US20140161741A1, “PERFUME SYSTEMS” (The Procter & Gamble Company, priority 2012, published 2014)

test: Odor character of Table 1 PRMs; details: neat PRM; last column of Table 1, which has no head

SMILES	odor character (descriptor)
CC1CC2(C)CC[C@@]1(C)O[C@H]2C (stereo partly drawn) [PRM 3, (R,S)-1,3,4,6-tetramethyl-2-oxabicyclo[2.2.2]octane]	menthol
CC[C@@]12CC[C@@](C)(OC1)C(C)C2 (stereo partly drawn) [PRM 10, (R,S)-4-ethyl-1,6-dimethyl-2-oxa-bicyclo[2.2.2]octane]	Herbal, aromatic, earthy
CCCCC1OC2(C)CCC1(CC)CC2C [PRM 2, (R,S)-3-butyl-4-ethyl-1,6-dime-thyl-2-oxabicyclo[2.2.2]octane]	floral
CC1C[C@]2(C)CC[C@@]1(C)OC2 (stereo partly drawn) [PRM 8, (R,S)-1,4,6-trimethyl-2-oxa-bicyclo[2.2.2]octane]	camphor, eucalyptol
CC1C[C@]2(C)CC[C@@]1(C)OC2(C)C (stereo partly drawn) [PRM 9, (R,S)-1,3,3,4,6-pentamethyl-2-oxa-bicyclo[2.2.2]octane]	woody, camphoraceous
CC(C)[C@@]12CC[C@@](C)(OC1)C(C)C2 (stereo partly drawn) [PRM 5, (R,S)-4-isopropyl-1,6-dimethyl-2-oxa-bicyclo[2.2.2]octane]	herbal, aromatic, chamomile, violet
CC(C)C[C@@H]1O[C@]2(C)CCC1(C)CC2C (stereo partly drawn) [PRM 1, (R,S)-3-isobutyl-1,4,6-trimethyl-2-oxabicyclo[2.2.2]octane]	petrol, styrene
C=CCC12CCC(C)(OC1)C(C)C2 (racemic) [PRM 7, 4-(R,S)-allyl-1,6-dimethyl-2-oxa-bicyclo[2.2.2]octane]	green (cactus flowers)
CCCC12CCC(C)(OC1)C(C)C2 (racemic) [PRM 6, 1,6-dimethyl-4-(R,S)-propyl-2-oxa-bicyclo[2.2.2]octane]	fruity, green, fresh
CCC12CC[C@@](C)(O[C@H]1C)C(C)C2 (stereo partly drawn) [PRM 4, (R,S)-4-ethyl-1,3,6-trimethyl-2-oxa-bicyclo[2.2.2]octane]	woody, eucalyptus, amber
CCCCC12CCC(C)(OC1C)C(C)C2 (stereo not shown) [PRM 12, 4-butyl-1,3,6-trimethyl-2-oxabicyclo[2.2.2]octane]	Floral, fruity, butyric
CCCCC1OC2(C)CCC1(C)CC2C (stereo not shown) [PRM 13, 3-butyl-1,4,6-trimethyl-2-oxabicyclo[2.2.2]octane]	solventy
CCCC12CCC(C)(OC1C)C(C)C2 (stereo not shown) [PRM 11, 1,3,6-trimethyl-4-propyl-2-oxabicyclo[2.2.2]octane]	Fresh, fruity (apple, pear), herbal, floral (rose)
